Results taken from the supplement of paper PMC11348887.
Where a name gives a salt, the structure may show the parent alone. Some of the results follow. Most values lie at the level of the controls, where differences are scatter.

Experiments:
Settings in all cases: 5 µM; treatment: days 7-14 after plating, readout day 21
[1] = system: hPSC-derived cortical neurons (WA09); test: nucleus area z-score vs screen plate; higher = larger nuclei (more mature)
[2] = system: hPSC-derived cortical neurons (WA09); test: total neurite length per nucleus (MAP2) z-score; higher = more neurite growth
[3] = system: hPSC-derived cortical neurons (WA09); test: nucleus roundness z-score vs screen plate; higher = rounder nuclei (more mature)
[4] = system: hPSC-derived cortical neurons (WA09); test: KCl-induced FOS+/EGR-1+ double-positive nuclei fraction z-score (KCl minus unstimulated); higher = stronger activity-induced IEG response

| Compound | nucleus area z-score [1] | total neurite length per nucleus (z-score) [2] | nucleus roundness z-score [3] | KCl-induced FOS+/EGR-1+ double-positive nuclei fraction z-score [4] |
| --- | --- | --- | --- | --- |
| O=C(O)c1cc(=O)c2c(OCC(O)COc3cccc4oc(C(=O)O)cc(=O)c34)cccc2o1 [Disodium Cromoglycate] | -0.516 | 0.351 | 0.0193 | 2.34 |
| CN[C@@H](C)C(=O)N[C@H]1CN(C(=O)CC(C)C)CC[C@H]2CC[C@@H](C(=O)NC(c3ccccc3)c3ccccc3)N2C1=O | -0.134 | -0.503 | -0.772 | -0.364 |
| CS(=O)(=O)OCCCCOS(C)(=O)=O [Busulfan] | -0.216 | 0.964 | 0.851 | 2.14 |
| O=S(=O)(O)CCS [Mesna] | -0.147 | -0.275 | 1.12 | 0.203 |
| NC(=O)c1cnc2[nH]ccc2c1NC1[C@@H]2CC3C[C@H]1CC(O)(C3)C2 (stereo partly drawn) | -0.0578 | 0.573 | 0.43 | -0.354 |
| C[C@@H]1C[C@H]2[C@@H]3CCC4=CC(=O)C=C[C@]4(C)[C@@]3(F)[C@@H](O)C[C@]2(C)[C@@]1(O)C(=O)CO [Dexamethasone (DHAP)] | 1.04 | 0.521 | 0.182 | 0.295 |
| NC(N)=Nc1nc(CSCC/C(N)=N/S(N)(=O)=O)cs1 [Famotidine] | -0.476 | -0.437 | 0.686 | 0.368 |
| CC(=O)OCC(=O)[C@@]12OC(C)(C)O[C@@H]1C[C@H]1[C@@H]3C[C@H](F)C4=CC(=O)C=C[C@]4(C)[C@@]3(F)[C@@H](O)C[C@@]12C [Fluocinonide] | -0.117 | 1.2 | -0.0109 | 0.993 |
| CCOC(=O)NCCCC(=O)NCCc1ccccc1 | -0.754 | 1.36 | 0.757 | 1.25 |
| COc1cc(F)c(F)c(Nc2ccc(I)cc2F)c1NS(=O)(=O)C1(C[C@H](O)CO)CC1 [Refametinib (RDEA119_ Bay 86-9766)] | -0.0867 | -0.479 | -0.479 | -1.05 |
| CC[C@@H](CO)NCCN[C@@H](CC)CO [Ethambutol HCl] | 1.44 | -1.09 | -0.47 | -0.455 |
| COc1ccccc1S(=O)(=O)Nc1ccc2c(c1)CN(C)C(=O)N2 | -0.137 | -0.561 | 0.446 | 0.227 |
| CCOC(=O)c1c2c3c(cccc3[nH]c1=O)C(=O)c1ccccc1-2 | -1.15 | -0.245 | -0.529 | -0.621 |
| C[N+](C)(C)CCOC(N)=O [Carbachol] | 1.49 | 1.33 | 0.388 | 0.773 |
| Nc1nc(CC(=O)Nc2ccc(CCNC[C@H](O)c3ccccc3)cc2)cs1 [Mirabegron] | -0.133 | 0.302 | 0.167 | -0.468 |
| CCOC(=O)c1c(CSc2ccccc2)n(C)c2cc(Br)c(O)c(CN(C)C)c12 [Arbidol HCl] | 0.543 | -0.101 | -0.837 | -1.41 |
| O=C(O)CCC(=O)c1ccc(-c2ccccc2)cc1 [Fenbufen] | -3.83 | -0.615 | -3.02 | 0.196 |
| CC1(C)CC(=O)c2c(C(F)(F)F)nn(-c3ccc(C(N)=O)c(N[C@H]4CC[C@H](O)CC4)c3)c2C1 | -13.7 | -5.63 | -5.06 | 0.251 |
| C=C1C(=O)O[C@@H]2/C=C(\C)CC/C=C(\C)CC[C@@H]12 [Costunolide] | 0.592 | -0.7 | -2.07 | -1.51 |
| CS(=O)(=O)c1ccc(C(=O)Nc2ccc(Cl)c(-c3ccccn3)c2)c(Cl)c1 [Vismodegib (GDC-0449)] | 0.419 | 0.405 | 0.447 | 1.53 |
| COC(=O)CCc1ccc(OCC(O)CNC(C)C)cc1 (stereo not drawn) [Esmolol HCl] | -11.1 | -4.66 | -2.68 | -10.3 |
| O=C(O)c1ccc(N2C(=O)/C(=C\c3ccc(-c4ccc([N+](=O)[O-])cc4)o3)C=C2c2ccccc2)cc1 | -0.625 | 0.242 | -0.343 | 0.906 |
| N[C@@H](CC(=O)N1CCn2c(nnc2C(F)(F)F)C1)Cc1cc(F)c(F)cc1F [Sitagliptin phosphate monohydrate] | -0.836 | 1.04 | -0.914 | -0.155 |
| CC(C)CC(CC(=O)NO)C(=O)N[C@@H](Cc1ccc2ccccc2c1)C(=O)N[C@@H](C)C(=O)NCCN (stereo partly drawn) | 0.192 | 0.116 | 0.418 | 1.14 |
| C[C@H]1c2cccc(O)c2C(=O)C2=C(O)[C@]3(O)C(=O)C(C(N)=O)=C(O)[C@@H](N(C)C)[C@@H]3[C@@H](O)[C@@H]21 [Doxycycline HCl] | 0.209 | -0.346 | -0.631 | 0.138 |
| Cc1cnc(C(=O)O)c[n+]1[O-] [Acipimox] | -0.698 | 0.0995 | 0.389 | -0.258 |
| C/C(O)=C(\C#N)C(=O)Nc1ccc(C(F)(F)F)cc1 [Teriflunomide] | 0.432 | -0.244 | -0.569 | 0.346 |

Some values from the entries so far:
nucleus roundness z-score [3] with O=C(O)CCC(=O)c1ccc(-c2ccccc2)cc1 [Fenbufen] is entered as -3.02
KCl-induced FOS+/EGR-1+ double-positive nuclei fraction z-score [4] with NC(N)=Nc1nc(CSCC/C(N)=N/S(N)(=O)=O)cs1 [Famotidine] is entered as 0.368
